This is an account of results in paper PMC5741264.

Amino acid sequences for entries named in this document (tags omitted).
UniProt Q8VZS8: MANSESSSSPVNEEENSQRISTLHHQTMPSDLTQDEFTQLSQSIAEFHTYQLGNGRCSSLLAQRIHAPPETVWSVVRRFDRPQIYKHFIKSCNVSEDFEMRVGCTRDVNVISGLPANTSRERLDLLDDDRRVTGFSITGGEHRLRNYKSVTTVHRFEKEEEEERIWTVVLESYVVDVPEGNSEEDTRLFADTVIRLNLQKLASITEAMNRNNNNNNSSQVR

Where two headings read alike, the source gives them in different places. Results are given in words; binding and its absence hold for the method and conditions named. In cells and extracts the contact can be indirect. Some binding calls cover weakened binding; strength is not graded here. Sequences can lack the tags named with a protein.

Test [1] addresses T1, NUP85-Nluc (Arabidopsis thaliana) (UniProt Q8RXH2).
T1 sequence: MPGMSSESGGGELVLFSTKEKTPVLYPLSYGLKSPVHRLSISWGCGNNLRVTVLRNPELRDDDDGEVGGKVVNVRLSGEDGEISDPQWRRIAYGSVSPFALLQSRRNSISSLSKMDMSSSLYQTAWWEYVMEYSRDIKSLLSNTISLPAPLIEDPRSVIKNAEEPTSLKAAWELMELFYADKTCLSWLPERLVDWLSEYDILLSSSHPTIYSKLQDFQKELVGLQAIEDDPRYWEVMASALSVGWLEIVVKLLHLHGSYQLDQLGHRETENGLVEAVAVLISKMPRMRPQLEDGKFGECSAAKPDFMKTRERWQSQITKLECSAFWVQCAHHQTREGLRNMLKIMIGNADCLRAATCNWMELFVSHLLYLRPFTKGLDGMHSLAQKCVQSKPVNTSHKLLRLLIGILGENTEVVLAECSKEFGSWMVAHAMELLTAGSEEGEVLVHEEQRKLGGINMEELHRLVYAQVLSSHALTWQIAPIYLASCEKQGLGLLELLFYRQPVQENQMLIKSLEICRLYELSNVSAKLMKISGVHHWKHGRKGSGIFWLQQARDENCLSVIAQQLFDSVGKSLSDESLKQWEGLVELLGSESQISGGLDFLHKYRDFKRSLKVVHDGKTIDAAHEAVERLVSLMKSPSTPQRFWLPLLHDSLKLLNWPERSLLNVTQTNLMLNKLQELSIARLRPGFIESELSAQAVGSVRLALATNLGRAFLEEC
The test can be described thus: split reporter; split luciferase complementation in Arabidopsis protoplasts, about 1x10^4 protoplasts per sample co-transformed with nLUC/cLUC plasmids; LUC activity imaged in the dark.

For test [2], the target named is T1, NUP85-Nluc (Arabidopsis thaliana). Described as above. The source holds these as a separate data set.
In test [3] the target is T2, NUP85-GFP (Arabidopsis thaliana) (UniProt Q8RXH2).
T2 sequence: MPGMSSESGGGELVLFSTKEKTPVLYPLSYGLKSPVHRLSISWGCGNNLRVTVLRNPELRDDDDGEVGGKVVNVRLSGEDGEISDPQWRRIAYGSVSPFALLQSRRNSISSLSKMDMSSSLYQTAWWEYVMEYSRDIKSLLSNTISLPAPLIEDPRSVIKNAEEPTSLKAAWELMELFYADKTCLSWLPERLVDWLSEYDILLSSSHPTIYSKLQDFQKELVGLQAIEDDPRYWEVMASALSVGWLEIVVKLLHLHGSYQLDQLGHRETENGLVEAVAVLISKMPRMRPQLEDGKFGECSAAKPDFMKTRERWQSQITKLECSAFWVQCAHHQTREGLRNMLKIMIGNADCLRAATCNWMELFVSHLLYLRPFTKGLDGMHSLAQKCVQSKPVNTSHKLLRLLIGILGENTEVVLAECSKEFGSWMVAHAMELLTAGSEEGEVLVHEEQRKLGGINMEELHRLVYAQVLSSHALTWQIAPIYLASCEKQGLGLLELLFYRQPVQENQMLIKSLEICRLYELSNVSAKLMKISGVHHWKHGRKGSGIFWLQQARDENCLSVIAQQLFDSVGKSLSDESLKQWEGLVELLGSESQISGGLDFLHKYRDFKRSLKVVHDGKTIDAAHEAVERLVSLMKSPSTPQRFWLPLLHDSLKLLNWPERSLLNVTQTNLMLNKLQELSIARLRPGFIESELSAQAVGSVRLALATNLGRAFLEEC
Kind of test: co-IP; NUP85-GFP co-expressed with MED18-HA in Arabidopsis protoplasts; lysate (50 mM Tris-HCl pH 7.5, 150 mM NaCl, 5 mM EDTA, 0.1 Triton X-100) on GFP-Trap beads, at least 4 h; blots with anti-HA and anti-GFP.

Take PYL1-Cluc (from UniProt Q8VZS8 1-221): in test [1], the binding result is listed as “no binding”.

B1: MED18-Cluc (protein, UniProt Q9SJZ6 1-219)
chain: MSMECVVQGIIETQHVEALEILLQGLCGVQRERLRVHELCLRSGPNLGVVSSEVRLLCDLDQPEPTWTVKHVGGAMRGAGADQISVLVRNMIESKVSKNALRMFYALGYKLDHELLKVGFAFHFQRTAHISVSVSSVNKMPKVHAIDEAVPVTPGMQIVDVTAPATSENYSEVAAAVSSFCEFLAPLVHLSKPSISTGVVPTAAAAAASLMSDGGGTTL
Regarding B1, in test [2], the binding result is reported as “binds”.

B2: MED18-HA (protein, UniProt Q9SJZ6 1-219)
chain: MSMECVVQGIIETQHVEALEILLQGLCGVQRERLRVHELCLRSGPNLGVVSSEVRLLCDLDQPEPTWTVKHVGGAMRGAGADQISVLVRNMIESKVSKNALRMFYALGYKLDHELLKVGFAFHFQRTAHISVSVSSVNKMPKVHAIDEAVPVTPGMQIVDVTAPATSENYSEVAAAVSSFCEFLAPLVHLSKPSISTGVVPTAAAAAASLMSDGGGTTL
In the case of B2, the binding entry in test [3] is “binds”.

B3: Sec13A, split-luciferase fusion (protein, UniProt Q9SRI1 1-302)
chain: MPPQKIETGHSDTIHDVVMDYYGKRVATASSDCTIKITGVSNSGGSQHLATLTGHRGPVWQVAWAHPKFGSLLASCSYDGQIILWKEGNQNQWTQAHVFTDHKVSVNSIAWAPHELGLSLACGASDGNISVFSARADGGWDTTKIDQAHPVGVTSVSWAPATEPGALVSSGMIDPVYKLASGGCDSTVKVWKFSNGSWKMDCFPALNKHTDWVRDVAWAPNLGLPKSTIASGSEDGKVIIWTIGKEGEQWEGTVLKDFKTPVWRVSWSLTGNLLAVSDGNNNVTVWKESVDGEWEQVTVVEP
For B3, the binding result in test [2] is listed as “binds”.
